Experimental data as given in doi:10.1101/719815 (bioRxiv, 2019).
Positions count from the first letter of the chain named. Like-named read-outs stand apart in the source and are kept apart here. Results are given in words; binding and its absence hold for the method and conditions named. Binding seen in cells or lysates may run through a third protein. Some results given as binding are weak or reduced against the parent protein; the word gives no strength. For some of these results: Tags and fused reporters may be left off the sequences shown.

How the values were obtained:
Test in all cases: split reporter
[1] = target: T1, Cdc24 extended by the Cub-RUra3 module (Cdc24CRU) (yeast) (UniProt P11433)
T1 sequence: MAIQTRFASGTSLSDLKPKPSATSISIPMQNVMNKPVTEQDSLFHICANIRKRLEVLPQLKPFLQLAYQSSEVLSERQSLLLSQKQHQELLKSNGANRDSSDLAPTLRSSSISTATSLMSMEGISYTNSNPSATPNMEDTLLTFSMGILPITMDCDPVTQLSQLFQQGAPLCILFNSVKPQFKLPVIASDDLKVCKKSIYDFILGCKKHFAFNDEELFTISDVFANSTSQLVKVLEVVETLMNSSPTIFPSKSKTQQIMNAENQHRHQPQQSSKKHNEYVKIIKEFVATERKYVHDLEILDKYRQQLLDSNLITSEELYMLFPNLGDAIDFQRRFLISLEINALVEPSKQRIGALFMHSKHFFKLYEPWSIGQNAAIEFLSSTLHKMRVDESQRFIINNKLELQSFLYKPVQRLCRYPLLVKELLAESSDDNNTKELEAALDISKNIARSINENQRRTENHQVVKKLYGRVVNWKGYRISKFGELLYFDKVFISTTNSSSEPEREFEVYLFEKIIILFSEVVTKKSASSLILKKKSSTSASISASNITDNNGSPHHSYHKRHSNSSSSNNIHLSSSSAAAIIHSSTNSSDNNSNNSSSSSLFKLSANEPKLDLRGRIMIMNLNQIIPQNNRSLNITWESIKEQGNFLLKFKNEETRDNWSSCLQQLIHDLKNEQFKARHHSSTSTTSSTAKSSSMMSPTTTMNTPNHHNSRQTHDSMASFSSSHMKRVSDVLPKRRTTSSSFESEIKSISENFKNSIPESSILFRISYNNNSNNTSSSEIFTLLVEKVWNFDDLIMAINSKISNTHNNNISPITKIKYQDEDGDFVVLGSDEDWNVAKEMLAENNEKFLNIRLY

[2] = target: T2, CDC24_(428-759)CRU (yeast) (UniProt P11433)
T2 sequence: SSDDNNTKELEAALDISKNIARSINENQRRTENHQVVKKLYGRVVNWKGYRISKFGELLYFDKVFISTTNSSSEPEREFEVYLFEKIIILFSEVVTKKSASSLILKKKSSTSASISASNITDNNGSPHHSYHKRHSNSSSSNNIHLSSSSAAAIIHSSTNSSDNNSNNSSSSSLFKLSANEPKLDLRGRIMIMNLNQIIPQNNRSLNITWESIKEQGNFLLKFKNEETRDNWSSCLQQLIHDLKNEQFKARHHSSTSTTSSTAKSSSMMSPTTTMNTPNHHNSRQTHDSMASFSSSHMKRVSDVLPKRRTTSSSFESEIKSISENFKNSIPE

[3] = target: T3, Cdc24_(428-854)CRU (yeast) (UniProt P11433)
T3 sequence: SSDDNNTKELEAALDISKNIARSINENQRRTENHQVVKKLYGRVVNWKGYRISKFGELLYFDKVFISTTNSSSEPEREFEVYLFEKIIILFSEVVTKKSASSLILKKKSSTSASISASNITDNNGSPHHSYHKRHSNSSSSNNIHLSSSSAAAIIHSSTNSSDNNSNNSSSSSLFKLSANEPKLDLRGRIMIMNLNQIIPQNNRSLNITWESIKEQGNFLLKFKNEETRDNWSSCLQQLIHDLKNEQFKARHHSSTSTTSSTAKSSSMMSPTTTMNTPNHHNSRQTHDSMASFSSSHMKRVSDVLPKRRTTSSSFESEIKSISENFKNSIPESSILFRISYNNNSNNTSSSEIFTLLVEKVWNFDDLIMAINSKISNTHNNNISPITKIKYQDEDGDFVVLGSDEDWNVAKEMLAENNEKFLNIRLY

[4] = target: T4, Cdc24_(755-854)CRU (yeast) (UniProt P11433)
T4 sequence: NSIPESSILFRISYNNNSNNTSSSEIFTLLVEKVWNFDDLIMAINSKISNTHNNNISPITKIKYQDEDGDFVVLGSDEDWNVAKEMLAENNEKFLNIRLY

[5] = target: T1, Cdc24 extended by the Cub-RUra3 module (Cdc24CRU) (yeast); remark: listed apart in the source
Cdc24KKCRU (yeast) = target: T5, Cdc24KKCRU (yeast) (UniProt P11433)
T5 sequence: T1 sequence with K525E, K801A

[6] = target: T1, Cdc24 extended by the Cub-RUra3 module (Cdc24CRU) (yeast); remark: listed apart in the source

B1: Nub fusion to Cdc11 lacking the N-terminal five residues (domain or fragment, UniProt P32458 6-415)
chain: DASSALRKRKHLKRGITFTVMIVGQSGSGRSTFINTLCGQQVVDTSTTILLPTDTSTEIDLQLREETVELEDDEGVKIQLNIIDTPGFGDSLDNSPSFEIISDYIRHQYDEILLEESRVRRNPRFKDGRVHCCLYLINPTGHGLKEIDVEFIRQLGSLVNIIPVISKSDSLTRDELKLNKKLIMEDIDRWNLPIYNFPFDEDEISDEDYETNMYLRTLLPFAIIGSNEVYEMGGDVGTIRGRKYPWGILDVEDSSISDFVILRNALLISHLHDLKNYTHEILYERYRTEALSGESVAAESIRPNLTKLNGSSSSSTTTRRNTNPFKQSNNINNDVLNPASDMHGQSTGENNETYMTREEQIRLEEERLKAFEERVQQELLLKRQELLQREKELREIEARLEKEAKIKQEE
[1]
  binding: binds

B2: Nub-Bem1 (protein, UniProt P29366 1-551)
chain: MLKNFKLSKRDSNGSKGRITSADISTPSHDNGSVIKHIKTVPVRYLSSSSTPVKSQRDSSPKNRHNSKDITSPEKVIKAKYSYQAQTSKELSFMEGEFFYVSGDEKDWYKASNPSTGKEGVVPKTYFEVFDRTKPSSVNGSNSSSRKVTNDSLNMGSLYAIVLYDFKAEKADELTTYVGENLFICAHHNCEWFIAKPIGRLGGPGLVPVGFVSIIDIATGYATGNDVIEDIKSVNLPTVQEWKSNIARYKASNISLGSVEQQQQQSITKPQNKSAKLVDGELLVKASVESFGLEDEKYWFLVCCELSNGKTRQLKRYYQDFYDLQVQLLDAFPAEAGKLRDAGGQWSKRIMPYIPGPVPYVTNSITKKRKEDLNIYVADLVNLPDYISRSEMVHSLFVVLNNGFDREFERDENQNNIKTLQENDTATFATASQTSNFASTNQDNTLTGEDLKLNKKLSDLSLSGSKQAPAQSTSGLKTTKIKFYYKDDIFALMLKGDTTYKELRSKIAPRIDTDNFKLQTKLFDGSGEEIKTDSQVSNIIQAKLKISVHDI
[2]
  binding: no binding
[3]
  binding: binds
[4]
  binding: binds
[5]
  binding: binds
Cdc24KKCRU (yeast)
  binding: binds

B3: Nub-Rga2 (protein, UniProt Q06407 1-1009)
chain: MSADPINDQSSLCVRCNKSIASSQVYELESKKWHDQCFTCYKCDKKLNADSDFLVLDIGTLICYDCSDKCTNCGDKIDDTAIILPSSNEAYCSNCFRCCRCSNRIKNLKYAKTKRGLCCMDCHEKLLRKKQLLLENQTKNSSKEDFPIKLPERSVKRPLSPTRINGKSDVSTNNTAISKNLVSSNEDQQLTPQVLVSQERDESSLNDNNDNDNSKDREETSSHARTVSIDDILNSTLEHDSNSIEEQSLVDNEDYINKMGEDVTYRLLKPQRANRDSIVVKDPRIPNSNSNANRFFSIYDKEETDKDDTDNKENEIIVNTPRNSTDKITSPLNSPMAVQMNEEVEPPHGLALTLSEATKENNKSSQGIQTSTSKSMNHVSPITRTDTVEMKTSTSSSTLRLSDNGSFSRPQTADNLLPHKKVAPSPNKKLSRSFSLKSKNFVHNLKSKTSEMLDPKHPHHSTSIQESDTHSGWGVSSTHTNIRKSKAKKNPVSRGQSDSTIYNTLPQHGNFTVPEFNHKKAQSSLGSISKKQNSNDTATNRRINGSFTSSSSGHHIAMFRTPPLESGPLFKRPSLSSESAHHRSSSLQTSRSTNALLEDDSTKVDATDESATSLEKDFYFTELTLRKLKLDVRELEGTKKKLLQDVENLRLAKERLLNDVDNLTREKDKQSASSRESLEQKENIATSITVKSPSSNSDRKGSISNASPKPRFWKIFSSAKDHQVGDLESQQRSPNSSSGGTTNIAQKEISSPKLIRVHDELPSPGKVPLSPSPKRLDYTPDGSHLYGSSLQARCAYEKSTVPIIIRCCIDRIEKDDIGLNMEGLYRKSGSQTLVEEIENEFAQNNSLHSDTLSPKLNALLNQDIHAVASVLKRYLRKLPDPVLSFSIYDALIDLVRNNQLIERLPLNNDKFLDSPQKVTIYEMVLKSLLEIFKILPVEHQEVLKVLAAHIGKVRRCSERNLMNLHNLSLVFAPSLIHDFDGEKDIVDMKERNYIVEFILGNYRDIFKQA
[6]
  binding: binds
